Molecules are shown by their SMILES. Some of the results follow. Shown are side measurements of this screen, not its main read-out; they come without a call. The list favours compounds with an active or inconclusive main result. The note in brackets gives the kind of curve behind each potency; many fits are weak.

The test can be described thus: qHTS Assay for Lipid Storage Modulators in Drosophila S3 Cells.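 As to cell number change: cells counted by Cell Tracker Red CMTPX staining in the red channel.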 The following applies: BODIPY lipid droplet fluorescence, 18-24 h; for cell number change: measured here: cell count max response, cells fed with added oleic acid. An outline of the steps:
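Laser-scanning cytometry quantifies lipid droplet accumulation (500–530 nm total intensity; droplet/cell object ratio) in oleic acid-fed (400 uM added) Drosophila S3 cells treated with a concentration series. 20 uM Triacsin C defined 100% inhibition.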

The mark [1] stands for this setting: measured here: cell number channel AC50, cells fed with added oleic acid.
Where [2] appears, read: measured here: lipid fluorescence (Fed channel) AC50, cells fed with added oleic acid.

Regarding `CC(Oc1ccccc1)C(=O)OCC(=O)NC(=O)NC1CCCCC1` (configuration not stated), the cell number change is -17.4%. Turning to `O=S1(=O)N=C2CCCN2C(c2ccc(F)cc2)N1` (configuration not stated), the cell number change was -15.4%. Under setting [1], the AC50 is 0.58 µM [rising, partial curve, poor fit]. Besides, the AC50 under setting [2] is 0.0731 µM [falling, full curve]. As to `COc1ccc(CCNC(=O)CCN2C(=O)[C@@H]3Cc4ccccc4CN3C2=O)cc1`, the cell number change was determined as 30.7%. Under setting [1], the AC50 was 29.1 µM [rising, single point]. Besides, the AC50 under setting [2] is 29.1 µM [rising, single point]. Consider `CCOC(=O)Oc1ccc2c(=O)c(Oc3cc(C)cc(C)c3)coc2c1`, for which the cell number change was 3.68%. Also, the AC50 under setting [2] was 0.411 µM [rising, full curve, poor fit]. As to `C/C(=N\NC(=O)c1ccc(N2CCCC2=O)cc1)c1ccncc1`, the cell number change stood at 22.5%. In addition, under setting [2], the AC50 is 9.2 µM [rising, partial curve]. Turning to `c1ccn2cc(C34CC5CC(CC(C5)C3)C4)nc2c1`, the cell number change turned out to be 27.8%. Moreover, under setting [2], the AC50 is 29.1 µM [rising, single point].

Turning to `COc1ccc(C(c2oc(CO)cc(=O)c2O)c2oc(CO)cc(=O)c2O)cc1`, the cell number change is -19.2%. The concentration at half-maximal activity (AC50) under setting [1] is 1.46 µM [rising, partial curve]. The half-maximal activity concentration (AC50) under setting [2] is 1.46 µM [rising, partial curve].

As to `Oc1ccccc1-c1cc(-c2ccccc2Cl)[nH]n1`, the cell number change is -74.2%. In addition, the AC50 under setting [1] was 29.1 µM [falling, single point]. For the same compound, the AC50 under setting [2] was 29.1 µM [falling, single point]. In the case of `Cn1c(SCC2CCCCC2)nnc1-c1ccncc1`, the cell number change stood at 32.5%. In addition, the AC50 under setting [1] was 29.1 µM [rising, single point]. Take `Cc1cccc(NC(=O)c2nc(-c3ccccc3)n(-c3ccccc3)n2)c1C`: the cell number change worked out at 16.7%. In addition, under setting [1], the half-maximal activity concentration (AC50) is 6.51 µM [rising, single point]. Further, the AC50 under setting [2] is 0.651 µM [rising, full curve]. `CC(C)Cn1c(N)c(C(=O)COC(=O)c2cc(C(F)(F)F)nc3c(C(F)(F)F)cccc23)c(=O)n(C)c1=O`: the cell number change is 19%. In addition, the AC50 under setting [2] is 18.4 µM [rising, partial curve].

For `CN1/C(=C/c2cccc[n+]2C)Sc2ccccc21`, the cell number change was -27%. Besides, the AC50 under setting [2] is 29.1 µM [falling, single point]. As to `C#CCN1C(=O)C(O)(c2c(C)[nH]c3ccccc23)c2ccccc21` (configuration not stated), the cell number change amounted to 1.45%. The AC50 under setting [2] is 5.8 µM [rising, full curve, poor fit]. For the compound `O=C(C1CCCN(Cc2cc(Br)ccc2O)C1)N1CCCCC1` (configuration not stated), the cell number change was -7.21%. Moreover, the AC50 under setting [2] is 0.103 µM [falling, full curve, poor fit]. `CCOCCCNC(=O)C(c1ccc(C)cc1)N1CCOCC1` (configuration not stated): the cell number change was 2.35%. Also, the AC50 under setting [2] is 0.13 µM [falling, full curve, poor fit]. Turning to `N=C1/C(=C/c2cccn2Cc2ccc(F)cc2)C(=O)N=C2SC=CN12`, the cell number change is 0.113%. Besides, under setting [2], the concentration at half-maximal activity (AC50) is 1.84 µM [rising, partial curve, poor fit]. In the case of `CCn1c(COc2cccc3ccccc23)nnc1SCC(N)=O`, the cell number change was -152%. The AC50 under setting [1] was 23.1 µM [falling, partial curve]. In addition, under setting [2], the half-maximal activity concentration (AC50) was 23.1 µM [falling, partial curve]. On to `COc1cc(C2SCC(=O)N2Cc2ccccc2)ccc1O` (configuration not stated), for which the AC50 under setting [1] is 0.651 µM [rising, partial curve, poor fit]. Consider `O=S(=O)(/N=C(/NS(=O)(=O)c1ccccc1)c1ccccc1)c1ccccc1`, for which the cell number change was -13.7%. The AC50 under setting [2] was 0.461 µM [falling, full curve].

Turning to `C/C(=N/N=C(/N)SCc1ccccc1)C(C)(C)C`, the cell number change came to 19.6%. Under setting [2], the half-maximal activity concentration (AC50) is 7.31 µM [rising, partial curve]. Take `O=C1C(Cl)=C(N2CCCC2)C(=O)N1c1ccc(F)cc1`: the cell number change is -13.6%. For the same compound, the AC50 under setting [2] is 7.31 µM [falling, partial curve, poor fit]. As to `CCCCn1c(SCC(=O)Nc2nccs2)nc2ccccc2c1=O`, the cell number change is 18.1%. For the same compound, under setting [2], the AC50 was 18.4 µM [rising, single point]. `CN1CCCN(C(=O)c2c(F)cccc2Cl)CC1`: under setting [2], the AC50 was 0.651 µM [falling, partial curve, poor fit]. For the compound `COC(=O)C1=C(CSCc2ccco2)NC(=O)NC1c1cc(C)ccc1C` (configuration not stated), the cell number change is -3.12%. Moreover, under setting [2], the AC50 was 6.51 µM [rising, single point]. `Cc1ccc(CN2C(=O)C(CC(C)C)Nc3ncnc(N4CCN(c5ccccn5)CC4)c32)cc1` (configuration not stated): the cell number change turned out to be 19.5%. `COc1ccc(OC)c(S(=O)(=O)Nc2ccccc2C)c1`: the cell number change stood at 14.5%. Further, the AC50 under setting [2] is 3.26 µM [rising, single point]. Turning to `CCOc1cccc2sc(N(CCN(C)C)C(=O)c3ccc4c(c3)OCCO4)nc12`, the cell number change amounted to 3.92%.

On to `C/C(=N\NC(=O)c1ccc(N2CCCC2=O)cc1)c1ccccc1`, for which the cell number change was determined as 1.9%. Turning to `Cc1onc(-c2ccc(Cl)cc2)c1-c1ccnn1S(=O)(=O)c1ccc(Cl)cc1`, the cell number change amounted to 30.2%. Also, the concentration at half-maximal activity (AC50) under setting [1] is 0.146 µM [rising, full curve, poor fit]. With `O=C(Nc1cc(SCC(O)CO)cc([N+](=O)[O-])c1)c1ccc(-n2cnnn2)cc1` (configuration not stated), the cell number change came out at 33.6%. Under setting [1], the AC50 is 29.1 µM [rising, single point]. On to `C/C(CC(=O)NC1CCCC1)=N\NC(=O)c1ccc([N+](=O)[O-])c(Cl)c1`, for which the cell number change was -1.42%. Under setting [2], the AC50 is 0.651 µM [rising, full curve, poor fit]. Consider `O=C(Nc1cc(Cl)ccc1N1CCCC1)C1=COCCO1`, for which the cell number change was 16.3%.

`COc1ccc(Cl)cc1N1CCN(CCNC(=O)Nc2ccccc2C)CC1`: the AC50 under setting [2] is 6.51 µM [rising, single point].

Consider `Cc1ccc(NC(=O)Nc2ccccc2C(=O)NCc2ccccc2)cc1`, for which the cell number change is 20%. Under setting [1], the AC50 was 3.66 µM [rising, single point]. The AC50 under setting [2] was 2.91 µM [rising, full curve]. Regarding `COc1ccc(-c2nc(C#N)c(NCCCN3CCOCC3)o2)cc1`, the concentration at half-maximal activity (AC50) under setting [2] is 6.51 µM [rising, single point]. For the compound `COc1cc2nc(SCC(=O)NCCc3ccccc3)n(Cc3ccco3)c(=O)c2cc1OC`, the cell number change is -18.1%. In addition, under setting [2], the AC50 is 2.06 µM [rising, full curve, poor fit]. As to `CC[n+]1c(/C=C/Nc2ccccc2)oc2ccc(OC)cc21`, the cell number change was determined as 8.89%. The AC50 under setting [2] is 7.31 µM [falling, partial curve, poor fit]. For the compound `CCOC(=O)c1ccc(CNCc2ccc(Br)cc2)cc1`, the cell number change was -3.2%. Also, the AC50 under setting [2] is 16.4 µM [rising, partial curve]. As for `COc1ccc(NC(=O)CN(C)S(=O)(=O)c2ccc3c(c2)n(C)c(=O)c(=O)n3C)cc1`, the cell number change is -5.6%. Besides, under setting [1], the AC50 is 6.51 µM [falling, single point]. Also, under setting [2], the AC50 is 6.51 µM [rising, single point]. Take `Cc1nn(CC(=O)N(C)Cc2ccc(F)cc2)c(C)c1[N+](=O)[O-]`: the cell number change was 6.46%. With `Cc1nn(-c2ccccc2)c(C)c1NC(=O)Cc1cccs1`, the cell number change was 5.62%. Also, under setting [1], the AC50 is 0.92 µM [rising, full curve, poor fit]. In addition, under setting [2], the AC50 is 1.3 µM [rising, partial curve]. On to `Cc1nc2nc(SCC(=O)NCc3ccco3)nn2c(C)c1Cc1c(F)cccc1Cl`, for which the cell number change was found to be 10.3%. For `CC1(C)C(=O)C2(CCCCC2)C(=O)OC1c1ccc(O)cc1` (configuration not stated), the cell number change was -33%. For the same compound, under setting [1], the AC50 was 29.1 µM [falling, single point]. Also, under setting [2], the AC50 was 7.31 µM [falling, single point]. As for `Nc1ccc2nn(-c3cc([N+](=O)[O-])ccc3O)nc2c1`, under setting [2], the concentration at half-maximal activity (AC50) was 0.0731 µM [falling, full curve, poor fit].

`O=C(COC(=O)c1ccc(S(=O)(=O)N2CCOCC2)cc1)NC1CCCCCCC1`: the cell number change amounted to 3.38%. As to `COc1cccc(NC(=O)CN(C)C(=O)c2cccc(S(=O)(=O)N3CCN(c4ccc(F)cc4)CC3)c2)c1`, the cell number change is -29.6%. Under setting [2], the AC50 was 0.00461 µM [falling, full curve, poor fit]. `COC(=O)c1ccccc1S(=O)(=O)N(Cc1ccco1)Cc1cc2cc(OC)ccc2[nH]c1=O`: the cell number change amounted to 6.18%. Also, the half-maximal activity concentration (AC50) under setting [2] is 6.51 µM [rising, single point].

For `COc1ccc([C@@H]2C[C@H](c3ccccc3)Oc3cc(OC)c(OC)c(OC)c32)cc1`, the AC50 under setting [2] is 1.84 µM [falling, full curve].

Turning to `Cc1cc(C(=O)NC2CC(C)(C)Cc3c2cnn3-c2ccc(F)cc2)no1` (configuration not stated), the cell number change is 7.33%. Turning to `CN(CC(=O)NC1CCN(Cc2ccccc2)CC1)S(=O)(=O)c1ccc(Cl)cc1`, the cell number change was -40.7%. The AC50 under setting [1] is 29.1 µM [falling, single point]. With `COc1cc(C(=O)NNC(=O)c2ccc(NC(C)=O)cc2)cc(OC)c1OC`, the cell number change is -1.79%. Besides, the AC50 under setting [2] was 0.651 µM [falling, single point]. Consider `CCOc1ccc(C(=O)NCC(=O)OCCN2C(=O)c3ccccc3C2=O)cc1OCC`, for which the cell number change came out at 27.7%. For the same compound, the AC50 under setting [2] is 0.291 µM [rising, full curve]. On to `O=C(Oc1ccccc1)c1ccc(NC(=O)c2ccco2)cc1`, for which the cell number change amounted to 16.9%. Also, the AC50 under setting [2] was 16.4 µM [rising, partial curve, poor fit]. For `COc1ccc(C)c2sc(N(CCN(C)C)C(=O)c3cccc(N4C(=O)CCC4=O)c3)nc12`, the cell number change is -16.4%. For the same compound, the AC50 under setting [2] was 29.1 µM [falling, single point].

`COc1ccc(CCN(Cc2nc(-c3ccccc3)no2)Cc2nc(-c3ccccc3)no2)cc1OC`: the cell number change came to 11.2%. In addition, the AC50 under setting [2] was 2.31 µM [rising, partial curve]. `O=C(CN1C(=O)CSc2ccc(S(=O)(=O)N3CCOCC3)cc21)NCc1ccc(Cl)cc1`: the cell number change was determined as 26.4%. Under setting [2], the AC50 was 29.1 µM [rising, single point].

As for `CCOC(=O)c1cnc2c(-c3ccccc3)c(-c3ccccc3)nn2c1C`, the cell number change stood at 11.3%. For the same compound, the concentration at half-maximal activity (AC50) under setting [2] is 20.6 µM [rising, single point]. Regarding `CC(C)(C)S(=O)(=O)c1cnc(N2CCCC2)nc1N`, the AC50 under setting [2] is 0.291 µM [falling, full curve, poor fit].

On to `CC(C)CN(C(=O)CN1CCN(S(=O)(=O)c2ccccc2)CC1)c1c(N)n(CC(C)C)c(=O)[nH]c1=O`, for which the cell number change is -26.8%. The AC50 under setting [2] was 4.11 µM [falling, full curve, poor fit].

The values are drawn from PubChem BioAssay AID2685 (National Center for Advancing Translational Sciences (NCATS), 2010).
